The assay has as its target JNK. In words: co-IP with anti-Flag beads and immunoblot; 293T cells co-transfected with Flag-Beclin 2 and an HA-tagged plasmid (FIG. 8A). A general note: Immunoblotting shows a protein as a band on a membrane.

Results are given in words; binding and its absence hold for the method and conditions named. In cells and extracts the contact can be indirect.

B1: Beclin 2 (human, full length) (protein)
chain: MSSIRFLCQRCHQALKLSGSSESRSLPAAPAPTSGQAEPGDTREPGVTTREVTDAEEQQDGASSRSPPGDGSVSKGHANIFTLLGELGAMHMLSSIQKAAGDIFDIVSGQAVVDHPLCEECTDSLLEQLDIQLALTEADSQNYQRCLETGELATSEDEAAALRAELRDLELEEARLVQELEDVDRNNARAAADLQAAQAEAAELDQQERQHYRDYSALKRQQLELLDQLGNVENQLQYARVQRDRLKEINCFTATFEIWVEGPLGVINNFRLGRLPTVRVGWNEINTAWGQAALLLLTLANTIGLQFQRYRLIPCGNHSYLKSLTDDRTELPLFCYGGQDVFLNNKYDRAMVAFLDCMQQFKEEAEKGELGLSLPYGIQVETGLMEDVGGRGECYSIRTHLNTQELWTKALKFMLINFKWSLIWVASRYQK
On to B1, for which the binding result is on record as “no binding”.
